Results from the supplement of paper PMC6411743.
± gives the standard deviation of the averaged measurements. This is one part of the list.

The chains behind the UniProt entries cited, without tags or fusion partners. Where a name states a change or a piece, a line headed by the entry shows the natural chain unless it says otherwise.
UniProt Q7L576: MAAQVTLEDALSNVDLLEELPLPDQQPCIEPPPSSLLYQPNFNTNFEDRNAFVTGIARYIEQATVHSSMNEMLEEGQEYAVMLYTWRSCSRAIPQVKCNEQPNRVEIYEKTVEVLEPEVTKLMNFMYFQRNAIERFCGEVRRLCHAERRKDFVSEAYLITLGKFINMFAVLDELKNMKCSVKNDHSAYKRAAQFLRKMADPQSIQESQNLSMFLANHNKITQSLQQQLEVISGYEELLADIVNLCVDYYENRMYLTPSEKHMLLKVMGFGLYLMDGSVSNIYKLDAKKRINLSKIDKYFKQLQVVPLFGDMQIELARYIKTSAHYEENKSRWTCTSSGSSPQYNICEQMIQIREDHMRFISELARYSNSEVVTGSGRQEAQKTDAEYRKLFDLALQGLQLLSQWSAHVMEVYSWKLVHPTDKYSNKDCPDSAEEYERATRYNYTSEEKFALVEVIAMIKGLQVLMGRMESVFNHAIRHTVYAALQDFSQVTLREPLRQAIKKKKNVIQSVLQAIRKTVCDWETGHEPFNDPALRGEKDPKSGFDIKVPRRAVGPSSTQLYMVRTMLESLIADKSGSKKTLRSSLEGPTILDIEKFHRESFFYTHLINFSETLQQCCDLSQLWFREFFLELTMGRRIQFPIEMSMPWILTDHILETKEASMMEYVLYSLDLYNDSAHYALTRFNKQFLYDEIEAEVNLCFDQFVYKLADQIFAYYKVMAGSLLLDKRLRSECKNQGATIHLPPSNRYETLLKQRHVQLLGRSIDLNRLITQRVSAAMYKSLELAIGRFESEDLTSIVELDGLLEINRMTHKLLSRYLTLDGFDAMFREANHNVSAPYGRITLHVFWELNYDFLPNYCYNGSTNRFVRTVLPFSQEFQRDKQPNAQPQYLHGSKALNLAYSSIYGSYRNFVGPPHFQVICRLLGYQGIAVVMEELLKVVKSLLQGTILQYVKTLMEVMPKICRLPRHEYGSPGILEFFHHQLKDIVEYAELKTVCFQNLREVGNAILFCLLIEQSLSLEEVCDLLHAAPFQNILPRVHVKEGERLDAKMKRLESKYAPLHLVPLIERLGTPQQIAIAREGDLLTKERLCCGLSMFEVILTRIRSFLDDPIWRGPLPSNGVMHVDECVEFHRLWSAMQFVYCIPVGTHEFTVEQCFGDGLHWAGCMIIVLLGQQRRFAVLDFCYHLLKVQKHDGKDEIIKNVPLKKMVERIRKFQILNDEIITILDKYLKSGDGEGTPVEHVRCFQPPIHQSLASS
UniProt Q6IPR3: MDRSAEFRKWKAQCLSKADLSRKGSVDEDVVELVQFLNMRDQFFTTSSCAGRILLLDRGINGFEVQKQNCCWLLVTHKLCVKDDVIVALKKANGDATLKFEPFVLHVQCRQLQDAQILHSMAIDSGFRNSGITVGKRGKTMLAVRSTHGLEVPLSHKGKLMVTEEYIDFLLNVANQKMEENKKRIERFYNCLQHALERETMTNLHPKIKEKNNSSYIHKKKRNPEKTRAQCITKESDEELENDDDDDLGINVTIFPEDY
UniProt Q5XPI4: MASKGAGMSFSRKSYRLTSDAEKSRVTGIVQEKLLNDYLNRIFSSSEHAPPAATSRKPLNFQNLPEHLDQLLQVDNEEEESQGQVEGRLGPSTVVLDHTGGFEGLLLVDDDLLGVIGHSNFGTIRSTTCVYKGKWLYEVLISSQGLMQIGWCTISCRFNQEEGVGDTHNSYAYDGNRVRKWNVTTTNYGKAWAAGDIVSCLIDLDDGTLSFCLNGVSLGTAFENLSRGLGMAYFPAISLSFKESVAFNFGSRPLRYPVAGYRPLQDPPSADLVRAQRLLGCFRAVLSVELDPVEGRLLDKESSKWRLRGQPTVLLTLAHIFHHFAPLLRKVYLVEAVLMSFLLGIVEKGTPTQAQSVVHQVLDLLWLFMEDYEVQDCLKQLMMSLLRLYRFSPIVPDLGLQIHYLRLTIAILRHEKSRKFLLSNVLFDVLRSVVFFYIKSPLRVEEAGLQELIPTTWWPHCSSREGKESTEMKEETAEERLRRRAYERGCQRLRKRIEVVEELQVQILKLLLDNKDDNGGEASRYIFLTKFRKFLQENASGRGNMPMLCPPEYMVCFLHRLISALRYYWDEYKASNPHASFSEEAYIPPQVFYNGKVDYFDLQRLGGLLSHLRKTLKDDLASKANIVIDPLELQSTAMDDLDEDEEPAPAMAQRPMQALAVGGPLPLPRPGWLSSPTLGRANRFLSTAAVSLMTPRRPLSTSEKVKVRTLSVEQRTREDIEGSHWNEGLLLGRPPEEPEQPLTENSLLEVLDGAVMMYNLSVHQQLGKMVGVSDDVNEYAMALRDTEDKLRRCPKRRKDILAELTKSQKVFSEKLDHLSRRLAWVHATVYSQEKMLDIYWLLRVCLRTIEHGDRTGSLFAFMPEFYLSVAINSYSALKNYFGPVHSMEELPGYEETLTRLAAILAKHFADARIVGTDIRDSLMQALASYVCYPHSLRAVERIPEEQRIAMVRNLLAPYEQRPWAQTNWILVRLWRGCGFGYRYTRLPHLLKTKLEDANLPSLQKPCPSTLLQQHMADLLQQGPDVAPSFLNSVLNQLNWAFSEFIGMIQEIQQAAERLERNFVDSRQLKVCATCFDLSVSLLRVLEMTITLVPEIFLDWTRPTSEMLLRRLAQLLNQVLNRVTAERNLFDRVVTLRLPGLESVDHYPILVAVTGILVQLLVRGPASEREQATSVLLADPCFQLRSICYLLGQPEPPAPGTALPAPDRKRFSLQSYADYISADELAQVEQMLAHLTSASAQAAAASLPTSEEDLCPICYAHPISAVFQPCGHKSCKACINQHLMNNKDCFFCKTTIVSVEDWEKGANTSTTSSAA
UniProt Q6NUK4: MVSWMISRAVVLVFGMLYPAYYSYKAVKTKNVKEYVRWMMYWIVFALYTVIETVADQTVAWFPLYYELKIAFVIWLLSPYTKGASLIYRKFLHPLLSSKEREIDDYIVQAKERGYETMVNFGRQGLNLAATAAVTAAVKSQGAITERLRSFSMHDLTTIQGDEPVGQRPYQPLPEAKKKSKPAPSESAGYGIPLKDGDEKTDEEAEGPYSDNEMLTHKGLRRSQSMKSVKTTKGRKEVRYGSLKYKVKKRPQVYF
UniProt Q66PJ3: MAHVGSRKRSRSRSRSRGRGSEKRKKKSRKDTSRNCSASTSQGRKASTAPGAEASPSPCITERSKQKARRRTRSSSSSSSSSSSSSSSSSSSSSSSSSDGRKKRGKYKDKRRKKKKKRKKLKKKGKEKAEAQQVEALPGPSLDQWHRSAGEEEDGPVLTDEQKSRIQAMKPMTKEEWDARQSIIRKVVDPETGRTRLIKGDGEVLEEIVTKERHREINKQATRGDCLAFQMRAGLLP
UniProt Q9UGV2: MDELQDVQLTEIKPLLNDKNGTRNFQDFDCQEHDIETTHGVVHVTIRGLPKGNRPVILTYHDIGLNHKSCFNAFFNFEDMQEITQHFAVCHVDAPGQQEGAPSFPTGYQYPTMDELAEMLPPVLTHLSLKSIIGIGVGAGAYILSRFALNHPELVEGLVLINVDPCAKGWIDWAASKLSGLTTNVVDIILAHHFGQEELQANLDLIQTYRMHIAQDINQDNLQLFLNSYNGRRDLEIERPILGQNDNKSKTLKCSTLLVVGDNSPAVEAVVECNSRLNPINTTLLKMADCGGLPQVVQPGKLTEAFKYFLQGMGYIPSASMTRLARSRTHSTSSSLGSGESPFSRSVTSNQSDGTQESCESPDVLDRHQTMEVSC
UniProt Q6IC98: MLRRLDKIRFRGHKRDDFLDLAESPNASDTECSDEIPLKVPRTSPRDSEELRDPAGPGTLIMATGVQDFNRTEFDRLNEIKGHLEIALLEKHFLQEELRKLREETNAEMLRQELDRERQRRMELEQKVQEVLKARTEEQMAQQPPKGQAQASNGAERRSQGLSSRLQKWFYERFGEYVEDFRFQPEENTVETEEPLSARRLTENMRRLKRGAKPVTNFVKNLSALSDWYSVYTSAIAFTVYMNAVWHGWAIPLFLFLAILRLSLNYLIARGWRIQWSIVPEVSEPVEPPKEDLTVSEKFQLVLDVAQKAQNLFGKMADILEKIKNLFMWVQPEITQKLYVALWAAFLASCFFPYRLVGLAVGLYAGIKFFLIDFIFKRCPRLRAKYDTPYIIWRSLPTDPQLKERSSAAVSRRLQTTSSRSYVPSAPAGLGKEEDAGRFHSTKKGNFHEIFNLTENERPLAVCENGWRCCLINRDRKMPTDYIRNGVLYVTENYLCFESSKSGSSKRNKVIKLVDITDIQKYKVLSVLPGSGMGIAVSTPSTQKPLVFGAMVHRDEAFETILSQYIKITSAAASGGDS
UniProt Q6PML9: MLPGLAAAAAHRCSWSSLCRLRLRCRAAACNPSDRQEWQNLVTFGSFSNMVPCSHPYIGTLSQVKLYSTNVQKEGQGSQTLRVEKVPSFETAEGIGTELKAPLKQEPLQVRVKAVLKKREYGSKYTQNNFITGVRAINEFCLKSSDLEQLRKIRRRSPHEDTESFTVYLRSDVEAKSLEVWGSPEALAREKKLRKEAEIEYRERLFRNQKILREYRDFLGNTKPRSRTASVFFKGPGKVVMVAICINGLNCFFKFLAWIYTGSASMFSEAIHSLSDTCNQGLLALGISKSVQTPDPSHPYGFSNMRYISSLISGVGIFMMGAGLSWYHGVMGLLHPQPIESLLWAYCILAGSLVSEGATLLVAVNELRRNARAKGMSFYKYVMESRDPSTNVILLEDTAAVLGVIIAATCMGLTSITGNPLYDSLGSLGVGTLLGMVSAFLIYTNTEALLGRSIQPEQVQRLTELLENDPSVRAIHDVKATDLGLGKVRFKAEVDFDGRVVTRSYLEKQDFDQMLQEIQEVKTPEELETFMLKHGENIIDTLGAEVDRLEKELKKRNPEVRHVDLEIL
UniProt Q6UWW8: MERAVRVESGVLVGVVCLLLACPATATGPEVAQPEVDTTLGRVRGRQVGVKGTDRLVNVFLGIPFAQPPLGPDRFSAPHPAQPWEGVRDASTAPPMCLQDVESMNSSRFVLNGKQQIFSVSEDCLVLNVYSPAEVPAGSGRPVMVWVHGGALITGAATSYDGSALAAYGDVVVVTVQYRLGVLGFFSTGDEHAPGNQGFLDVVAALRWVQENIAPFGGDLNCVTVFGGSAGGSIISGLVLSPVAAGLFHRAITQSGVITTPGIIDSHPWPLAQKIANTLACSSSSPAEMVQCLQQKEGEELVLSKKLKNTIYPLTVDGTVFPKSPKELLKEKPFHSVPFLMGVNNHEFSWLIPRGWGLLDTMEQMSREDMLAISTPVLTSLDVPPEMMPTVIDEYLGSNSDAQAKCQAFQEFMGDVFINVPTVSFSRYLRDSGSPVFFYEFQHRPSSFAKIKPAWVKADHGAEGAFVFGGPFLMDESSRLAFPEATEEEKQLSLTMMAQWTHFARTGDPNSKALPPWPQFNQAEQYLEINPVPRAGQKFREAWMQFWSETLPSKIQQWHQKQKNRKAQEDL
UniProt Q70Z53: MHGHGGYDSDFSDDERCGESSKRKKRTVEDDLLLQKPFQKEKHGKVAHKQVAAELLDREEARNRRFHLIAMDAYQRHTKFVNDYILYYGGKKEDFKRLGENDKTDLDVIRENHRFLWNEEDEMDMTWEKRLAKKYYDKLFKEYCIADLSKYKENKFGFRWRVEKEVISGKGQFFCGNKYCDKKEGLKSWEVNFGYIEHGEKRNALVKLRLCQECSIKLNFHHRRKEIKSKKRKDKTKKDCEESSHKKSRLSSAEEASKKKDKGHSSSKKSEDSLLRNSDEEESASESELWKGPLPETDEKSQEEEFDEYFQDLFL
UniProt Q5TFE4: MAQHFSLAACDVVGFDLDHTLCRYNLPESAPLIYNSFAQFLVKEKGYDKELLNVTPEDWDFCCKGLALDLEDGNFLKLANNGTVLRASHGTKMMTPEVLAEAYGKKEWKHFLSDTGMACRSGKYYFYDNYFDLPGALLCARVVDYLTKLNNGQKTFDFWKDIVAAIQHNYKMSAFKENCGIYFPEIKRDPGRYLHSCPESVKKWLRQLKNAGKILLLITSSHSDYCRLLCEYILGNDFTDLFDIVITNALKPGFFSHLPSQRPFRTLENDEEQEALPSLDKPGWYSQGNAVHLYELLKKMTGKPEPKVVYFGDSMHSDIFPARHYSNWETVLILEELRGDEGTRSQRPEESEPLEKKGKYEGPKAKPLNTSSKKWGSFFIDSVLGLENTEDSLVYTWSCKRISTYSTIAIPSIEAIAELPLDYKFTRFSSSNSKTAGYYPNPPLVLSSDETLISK

Compound: Nc1nc2c(ncn2[C@@H]2O[C@H](COP(=O)(O)OP(=O)(O)OP(=O)(O)O)[C@@H](O)[C@H]2O)c(=O)[nH]1 [guanosine triphosphate]
Test: NP40-soluble protein abundance relative to vehicle (solubility fold change) (ratio); higher = more soluble protein in presence of GTP
Method in brief: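 Jurkat crude lysate (Dounce-homogenised) was treated with eight concentrations from 0.1 to 10 mM for 10 min at room temperature, then 3 min at 37 °C. It was solubilised with 0.8% NP40 and benzonase (60 min, 4 °C) and ultracentrifuged, and the supernatant was TMT-labelled for LC-MS/MS. Intensities were vsn-normalised, and the value is the fold change against the NP40-processed vehicle per replicate, from three independent experiments.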

UniProt Q86W92 and related entries
NP40-soluble protein abundance (concentration: 0.1mM): 1.11 ± 0.017 | NP40-soluble protein abundance (concentration: 0.5mM): 1.063 ± 0.0067 | NP40-soluble protein abundance (concentration: 1mM): 1.07 ± 0.024 | NP40-soluble protein abundance (concentration: 2mM): 1 ± 0.024 | NP40-soluble protein abundance (concentration: 4mM): 0.977 ± 0.036 | NP40-soluble protein abundance (concentration: 6mM): 1.08 ± 0.019 | NP40-soluble protein abundance (concentration: 8mM): 1.11 ± 0.075 | NP40-soluble protein abundance (concentration: 10mM): 1.1 ± 0.06

CYFIP1 (UniProt Q7L576)
NP40-soluble protein abundance (concentration: 0.1mM): 1.14 ± 0.13 | NP40-soluble protein abundance (concentration: 0.5mM): 1.13 ± 0.1 | NP40-soluble protein abundance (concentration: 1mM): 0.964 ± 0.12 | NP40-soluble protein abundance (concentration: 2mM): 1.02 ± 0.29 | NP40-soluble protein abundance (concentration: 4mM): 1.07 ± 0.15 | NP40-soluble protein abundance (concentration: 6mM): 1.02 ± 0.15 | NP40-soluble protein abundance (concentration: 8mM): 0.948 ± 0.066 | NP40-soluble protein abundance (concentration: 10mM): 0.955 ± 0.15

UniProt Q6P1J9
NP40-soluble protein abundance (concentration: 0.1mM): 0.9922 ± 0.0089 | NP40-soluble protein abundance (concentration: 0.5mM): 0.996 ± 0.028 | NP40-soluble protein abundance (concentration: 1mM): 0.963 ± 0.035 | NP40-soluble protein abundance (concentration: 2mM): 0.969 ± 0.028 | NP40-soluble protein abundance (concentration: 4mM): 0.963 ± 0.017 | NP40-soluble protein abundance (concentration: 6mM): 0.958 ± 0.042 | NP40-soluble protein abundance (concentration: 8mM): 0.902 ± 0.034 | NP40-soluble protein abundance (concentration: 10mM): 0.84 ± 0.048

UniProt Q6IPR3 and related entries
NP40-soluble protein abundance (concentration: 0.1mM): 1.09 ± 0.034 | NP40-soluble protein abundance (concentration: 0.5mM): 1.14 ± 0.04 | NP40-soluble protein abundance (concentration: 1mM): 0.948 ± 0.12 | NP40-soluble protein abundance (concentration: 2mM): 0.961 ± 0.23 | NP40-soluble protein abundance (concentration: 4mM): 0.956 ± 0.23 | NP40-soluble protein abundance (concentration: 6mM): 0.968 ± 0.16 | NP40-soluble protein abundance (concentration: 8mM): 0.987 ± 0.14 | NP40-soluble protein abundance (concentration: 10mM): 0.972 ± 0.093

UniProt Q5XPI4 and related entries
NP40-soluble protein abundance (concentration: 0.1mM): 1.07 ± 0.071 | NP40-soluble protein abundance (concentration: 0.5mM): 1.09 ± 0.15 | NP40-soluble protein abundance (concentration: 1mM): 1.04 ± 0.11 | NP40-soluble protein abundance (concentration: 2mM): 1.08 ± 0.087 | NP40-soluble protein abundance (concentration: 4mM): 0.982 ± 0.1 | NP40-soluble protein abundance (concentration: 6mM): 1.01 ± 0.082 | NP40-soluble protein abundance (concentration: 8mM): 0.973 ± 0.11 | NP40-soluble protein abundance (concentration: 10mM): 0.989 ± 0.12

REEP3 (UniProt Q6NUK4)
NP40-soluble protein abundance (concentration: 0.1mM): 0.931 ± 0.049 | NP40-soluble protein abundance (concentration: 0.5mM): 1.08 ± 0.078 | NP40-soluble protein abundance (concentration: 1mM): 1.092 ± 0.0091 | NP40-soluble protein abundance (concentration: 2mM): 1.03 ± 0.025 | NP40-soluble protein abundance (concentration: 4mM): 1.02 ± 0.029 | NP40-soluble protein abundance (concentration: 6mM): 1.03 ± 0.059 | NP40-soluble protein abundance (concentration: 8mM): 1.1 ± 0.091 | NP40-soluble protein abundance (concentration: 10mM): 1.03 ± 0.029

UniProt Q66PJ3 and related entries
NP40-soluble protein abundance (concentration: 0.1mM): 0.994 ± 0.095 | NP40-soluble protein abundance (concentration: 0.5mM): 1.03 ± 0.12 | NP40-soluble protein abundance (concentration: 1mM): 1.05 ± 0.12 | NP40-soluble protein abundance (concentration: 2mM): 0.995 ± 0.18 | NP40-soluble protein abundance (concentration: 4mM): 0.912 ± 0.12 | NP40-soluble protein abundance (concentration: 6mM): 0.879 ± 0.13 | NP40-soluble protein abundance (concentration: 8mM): 0.935 ± 0.094 | NP40-soluble protein abundance (concentration: 10mM): 0.974 ± 0.094

Q5TH30 and related entries (UniProt Q9UGV2)
NP40-soluble protein abundance (concentration: 0.1mM): 0.97 ± 0.092 | NP40-soluble protein abundance (concentration: 0.5mM): 0.953 ± 0.058 | NP40-soluble protein abundance (concentration: 1mM): 0.965 ± 0.084 | NP40-soluble protein abundance (concentration: 2mM): 0.884 ± 0.043 | NP40-soluble protein abundance (concentration: 4mM): 0.917 ± 0.1 | NP40-soluble protein abundance (concentration: 6mM): 0.893 ± 0.08 | NP40-soluble protein abundance (concentration: 8mM): 0.941 ± 0.095 | NP40-soluble protein abundance (concentration: 10mM): 0.874 ± 0.065

GRAMD4 (UniProt Q6IC98)
NP40-soluble protein abundance (concentration: 0.1mM): 1.01 ± 0.04 | NP40-soluble protein abundance (concentration: 0.5mM): 1.01 ± 0.011 | NP40-soluble protein abundance (concentration: 1mM): 0.963 ± 0.047 | NP40-soluble protein abundance (concentration: 2mM): 0.962 ± 0.045 | NP40-soluble protein abundance (concentration: 4mM): 0.951 ± 0.031 | NP40-soluble protein abundance (concentration: 6mM): 0.956 ± 0.035 | NP40-soluble protein abundance (concentration: 8mM): 0.9823 ± 0.0076 | NP40-soluble protein abundance (concentration: 10mM): 0.956 ± 0.041

SLC30A9 (UniProt Q6PML9)
NP40-soluble protein abundance (concentration: 0.1mM): 1.1 ± 0.058 | NP40-soluble protein abundance (concentration: 0.5mM): 1 ± 0.054 | NP40-soluble protein abundance (concentration: 1mM): 0.987 ± 0.06 | NP40-soluble protein abundance (concentration: 2mM): 0.997 ± 0.12 | NP40-soluble protein abundance (concentration: 4mM): 0.997 ± 0.067 | NP40-soluble protein abundance (concentration: 6mM): 1 ± 0.11 | NP40-soluble protein abundance (concentration: 8mM): 1.05 ± 0.16 | NP40-soluble protein abundance (concentration: 10mM): 0.972 ± 0.053

CES3 (UniProt Q6UWW8)
NP40-soluble protein abundance (concentration: 0.1mM): 1.093 ± 0.0059 | NP40-soluble protein abundance (concentration: 0.5mM): 1.09 ± 0.11 | NP40-soluble protein abundance (concentration: 1mM): 1.1616 ± 0.00041 | NP40-soluble protein abundance (concentration: 2mM): 1.13 ± 0.023 | NP40-soluble protein abundance (concentration: 4mM): 1.03 ± 0.057 | NP40-soluble protein abundance (concentration: 6mM): 0.993 ± 0.026 | NP40-soluble protein abundance (concentration: 8mM): 1.01 ± 0.11 | NP40-soluble protein abundance (concentration: 10mM): 0.982 ± 0.025

UniProt Q70Z53
NP40-soluble protein abundance (concentration: 0.1mM): 1.01 ± 0.057 | NP40-soluble protein abundance (concentration: 0.5mM): 1.01 ± 0.022 | NP40-soluble protein abundance (concentration: 1mM): 0.931 ± 0.035 | NP40-soluble protein abundance (concentration: 2mM): 0.943 ± 0.045 | NP40-soluble protein abundance (concentration: 4mM): 0.912 ± 0.051 | NP40-soluble protein abundance (concentration: 6mM): 0.913 ± 0.033 | NP40-soluble protein abundance (concentration: 8mM): 0.926 ± 0.048 | NP40-soluble protein abundance (concentration: 10mM): 0.894 ± 0.057

UniProt Q7Z739 and related entries
NP40-soluble protein abundance (concentration: 0.1mM): 1.01 ± 0.064 | NP40-soluble protein abundance (concentration: 0.5mM): 1.02 ± 0.087 | NP40-soluble protein abundance (concentration: 1mM): 0.939 ± 0.054 | NP40-soluble protein abundance (concentration: 2mM): 0.938 ± 0.05 | NP40-soluble protein abundance (concentration: 4mM): 0.911 ± 0.11 | NP40-soluble protein abundance (concentration: 6mM): 0.934 ± 0.12 | NP40-soluble protein abundance (concentration: 8mM): 0.941 ± 0.057 | NP40-soluble protein abundance (concentration: 10mM): 0.946 ± 0.1

NT5DC1 (UniProt Q5TFE4)
NP40-soluble protein abundance (concentration: 0.1mM): 1.06 ± 0.073 | NP40-soluble protein abundance (concentration: 0.5mM): 1.08 ± 0.1 | NP40-soluble protein abundance (concentration: 1mM): 0.943 ± 0.065 | NP40-soluble protein abundance (concentration: 2mM): 0.934 ± 0.14 | NP40-soluble protein abundance (concentration: 4mM): 0.895 ± 0.097 | NP40-soluble protein abundance (concentration: 6mM): 0.909 ± 0.057 | NP40-soluble protein abundance (concentration: 8mM): 0.881 ± 0.07 | NP40-soluble protein abundance (concentration: 10mM): 0.888 ± 0.089
